{"source": "PubChem BioAssay AID624297", "about": "(National Center for Advancing Translational Sciences (NCATS), 2012)", "note": "The whole screen tested about 340,000 compounds, of which about 6,200 (1.8%) were called active. The shares of active, inactive and inconclusive entries below differ from those in the screen. The call rests on the fitted dose curve; in most records, active means well fitted activation curve with a large enough effect; inconclusive means small, poorly fitted or top-dose-only effect; inactive means no such curve, though single readings can be large or run the other way. Potencies beside an inconclusive call are fits to weak or partial responses and may not hold up. Potency means the concentration at half of the fitted maximal effect."}
{"experiment": "A quantitative high throughput screen for small molecules that induce DNA re-replication in SW480 colon adenocarcinoma cells; further: nearly all actives have a fitted effect of over 55% in size.", "conditions": "Hoechst DNA content imaging, 48 h; series mostly up to 46.1 µM", "procedure,_shortened": "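Image-based DNA-content assay: after two days of treatment, nuclei were labelled with the DNA dye Hoechst and imaged, and hits were compounds raising the count of nuclei showing high fluorescence intensity.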"}
{"smiles": "CC(C)NS(=O)(=O)c1ccc(Oc2ncc(C(F)(F)F)cc2Cl)cc1", "Potency": "inactive"}
{"smiles": "NC(=O)c1ccc(-n2nnnc2SCc2ccccc2)cc1", "Potency": "inconclusive: 23.1 µM [activator, single point]"}
{"smiles": "Cc1ccc(C(C)C)c(OCc2nn(CC(=O)c3ccc(Cl)cc3)c3[n+]2CCCCC3)c1", "Potency": "inconclusive: 29.1 µM [activator, single point]"}
{"smiles": "CC1(C)OC(=O)C(=CNc2cccc(O)c2)C(=O)O1", "Potency": "inconclusive: 29.1 µM [activator, single point]"}
{"smiles": "O=C1C(Oc2ccccc2)C(c2cccs2)N1Cc1ccc2c(c1)OCO2", "note": "(stereo not drawn)", "Potency": "inactive"}
{"smiles": "COCCNC(=S)N/N=C/c1ccc(N2CCOCC2)cc1", "Potency": "inconclusive: 25.9 µM [activator, single point]"}
{"smiles": "COCCn1c(C)cc(C2=NNC(=NC(C)(C)C)SC2)c1C", "Potency": "inconclusive: 14.6 µM [activator, partial curve, poor fit]"}
{"smiles": "CC(=O)c1ccc(C(=O)N(CCN(C)C)c2nc3c(Cl)cccc3s2)cc1", "Potency": "inconclusive: 29.1 µM [activator, single point]"}
{"smiles": "C/C(=N/Nc1nc(C)cc(C)n1)c1ccc(Br)cc1", "Potency": "inconclusive: 29.1 µM [activator, single point]"}
{"smiles": "O=[N+]([O-])c1ccccc1C1Nc2cccc3cccc(c23)N1", "Potency": "inconclusive: 3.55 µM [activator, single point]"}
{"smiles": "CC(C)C(NS(=O)(=O)c1ccccc1)C(=O)N1CCCC1", "note": "(stereo not drawn)", "Potency": "inconclusive: 6.51 µM [activator, partial curve, poor fit]"}
{"smiles": "CC[C@H](C)C(=O)O[C@H]1CCC=C2C=C[C@H](C)[C@H](CC[C@@H]3C[C@@H](O)CC(=O)O3)[C@H]21", "Potency": "inconclusive: 3.26 µM [activator, full curve, poor fit]"}
{"smiles": "Cc1ccc2[nH]c(=O)c(CN(CCN3CCOCC3)C(=O)Nc3ccccc3F)cc2c1", "Potency": "inconclusive: 23.1 µM [activator, partial curve, poor fit]"}
{"smiles": "CCOC(=O)c1c(-n2c(C)cc(C=O)c2C)sc2c1CCCC2", "Potency": "inconclusive: 17.8 µM [activator, single point]"}
{"smiles": "O=C(CC(c1ccccc1)c1ccccc1O)NCCc1ccccc1", "note": "(stereo not drawn)", "Potency": "inactive"}
{"smiles": "COc1ccc(CC(=O)c2ccc(OC)c(OC)c2C)cc1OC", "Potency": "inconclusive: 0.326 µM [activator, full curve, poor fit]"}
{"smiles": "O=c1[nH]cnc2c1ncn2C1OCC(O)C(O)C1O", "note": "(stereo not drawn)", "Potency": "inactive"}
{"smiles": "N#CC1=C(N)Oc2cc(N)ccc2C1c1ccc(F)cc1", "note": "(stereo not drawn)", "Potency": "inconclusive: 29.1 µM [activator, single point]"}
